# “And” between values parts separate entries of the source, which are not always exact repeats. Equal values may be shown once. Among all 390,000 compounds or so, about 4,000 (1%) were called active. The shares of active, inactive and inconclusive entries below differ from those in the screen. Calls come from the whole dose curve; as a rule, active = well fitted inhibition curve with a large enough effect; inconclusive = small, poorly fitted or top-dose-only effect, or another doubt; inactive = no such curve, though single readings can be large or run the other way. A potency beside an inconclusive call is a rough fit, not a confirmed value.
# The chains behind the UniProt entries cited, without tags or fusion partners. Where a name states a change or a piece, a line headed by the entry shows the natural chain unless it says otherwise.
# UniProt Q9UNA4: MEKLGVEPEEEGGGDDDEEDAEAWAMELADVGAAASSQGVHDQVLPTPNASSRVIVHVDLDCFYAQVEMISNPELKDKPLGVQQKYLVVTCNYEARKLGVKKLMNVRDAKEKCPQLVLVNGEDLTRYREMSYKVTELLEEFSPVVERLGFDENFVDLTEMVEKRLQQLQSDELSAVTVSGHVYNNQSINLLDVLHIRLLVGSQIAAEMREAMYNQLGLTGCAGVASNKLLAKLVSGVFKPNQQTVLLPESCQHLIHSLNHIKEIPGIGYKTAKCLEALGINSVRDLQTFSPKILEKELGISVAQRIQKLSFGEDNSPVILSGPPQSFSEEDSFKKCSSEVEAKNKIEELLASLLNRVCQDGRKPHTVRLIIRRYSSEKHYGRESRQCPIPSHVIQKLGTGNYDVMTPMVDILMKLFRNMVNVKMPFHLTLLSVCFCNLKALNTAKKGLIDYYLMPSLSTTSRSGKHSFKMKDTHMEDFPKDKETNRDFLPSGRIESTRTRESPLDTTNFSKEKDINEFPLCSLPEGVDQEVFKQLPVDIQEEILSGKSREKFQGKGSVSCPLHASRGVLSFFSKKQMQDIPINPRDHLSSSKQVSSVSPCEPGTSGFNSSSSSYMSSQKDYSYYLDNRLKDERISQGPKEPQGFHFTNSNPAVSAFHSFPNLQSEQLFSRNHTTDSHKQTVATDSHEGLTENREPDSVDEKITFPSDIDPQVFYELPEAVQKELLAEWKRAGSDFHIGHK
# Molecular target: DNA polymerase iota (Homo sapiens) (UniProt Q9UNA4)
# Assay: qHTS for Inhibitors of Polymerase Iota
# Conditions: Pol iota fluorescent replication assay, 10 min; series mostly up to 115 µM; activity, negative = inhibition: at the top concentration
# Summary of the method: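 Pol iota at 10 nM preincubated 15 min with compounds at room temperature; reaction started with fluorescent substrate, 50 nM final. Fluorescence read kinetically at 0 and 10 min; buffer-only wells as negative control.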
# Potency is the fitted concentration of half-maximal effect.
SMILES,Potency,"activity, negative = inhibition"
COc1ccc(/C=C2\SC(=S)N(CCC(=O)NC3C=CS(=O)(=O)C3)C2=O)cc1 (stereo not drawn),"inconclusive: 25.1 µM [inhibitor, single point]",
O=C(Nc1ccc(NC(=O)N2CCN(c3ccccc3O)CC2)cc1)N1CCN(c2ccccc2O)CC1,"inconclusive: 50.1 µM [inhibitor, partial curve]",
c1ccc2c(c1)nc1n2CC2CON(C3CCCCC3)C12 (stereo not drawn),"inconclusive: 56.2 µM [inhibitor, partial curve, poor fit]",
N#C/C(=C\c1ccco1)C(=O)NCC1CCCO1 (stereo not drawn),"inconclusive: 70.8 µM [inhibitor, partial curve]",
COc1ccc([N+](=O)[O-])c(S(=O)(=O)c2ccc(Cl)cc2)n1,"inconclusive: 0.708 µM [inhibitor, full curve, poor fit]",
COc1ccc(-c2nc3ccccc3o2)cc1NC(=O)c1cc([N+](=O)[O-])ccc1N1CCOCC1,"inconclusive: 3.98 µM [inhibitor, partial curve, poor fit]",
Cc1ccc(S(=O)(=O)c2cn(CC(=O)Nc3ccc4c(c3)OCO4)c3ccc(C)cc3c2=O)cc1,,inactive: 15.8%
Cc1cc(OCC(=O)OCC(=O)NC2CCCCC2C)ccc1Cl (stereo not drawn),,inactive: 51.2%
O=C1NNC(c2ccccc2)=N/C1=C\c1ccco1,"inconclusive: 20 µM [inhibitor, full curve]",
Cc1ccc2c(c1)NC(=O)C(CC(=O)NCCCN1CCN(c3cc(C)ccc3C)CC1)O2 (stereo not drawn),"inconclusive: 44.7 µM [inhibitor, partial curve, poor fit]",
O=C1CCc2cc(S(=O)(=O)NC3CCCCC3)cc3c2N1CC3,active: 50.1 µM,
Cc1ccc(S(=O)(=O)N2CCCCC2)cc1NC(=O)Cc1cccs1,"inconclusive: 89.1 µM [inhibitor, single point]",
COC(=O)Cc1c(C)nc2nc(NCc3ccc(Br)cc3)[nH]n2c1=O,"inconclusive: 70.8 µM [inhibitor, partial curve, poor fit]",
CC(Oc1ccccc1)C(=O)Nc1ccccc1C(=O)OCc1cc(=O)n2nc(C3CC3)sc2n1 (stereo not drawn),,inactive: -18.6%
Cc1cc(C)c2c(C)c(C(=O)NCc3ccc(S(N)(=O)=O)cc3)oc2c1,"inconclusive: 56.2 µM [inhibitor, partial curve, poor fit]",
O=C(C1CCC(=O)N1Cc1ccccc1Cl)N1CCN(c2cccc(Cl)c2)CC1 (stereo not drawn),"inconclusive: 39.8 µM [inhibitor, single point]",
COc1ccc(Br)cc1/C=N/n1c(-c2ccccc2)n[nH]c1=S,,inactive: 4.81%
COc1ccc(NC(=O)CCn2cnnn2)cc1,,inactive: 1.82%
Cn1cccc1CNC(=S)Nc1ccccc1F,"inconclusive: 89.1 µM [inhibitor, single point]",
COc1ccc(NS(=O)(=O)c2cc([N+](=O)[O-])ccc2NN=Cc2ccccc2OCC(=O)O)cc1,"inconclusive: 56.2 µM [inhibitor, single point]",
CCOc1ccc(NC(=O)CN(C)S(=O)(=O)c2ccc(-c3ccc(=O)[nH]n3)s2)cc1,"inconclusive: 22.4 µM [inhibitor, partial curve, poor fit]",
CCCCN(CC)c1nc(-c2ccncc2)nc2ccccc12,"inconclusive: 39.8 µM [inhibitor, partial curve, poor fit]",
COC(=O)c1cccc(C23CC4(C2)[C@H](CN(Cc2ccc(-c5ccccc5)cc2)[C@@H]4c2ccccc2)C3c2ccccc2)c1 (stereo partly drawn),"inconclusive: 31.6 µM [inhibitor, partial curve]",

SMILES,Potency,"activity, negative = inhibition"
CC(C)NC(=O)COC(=O)c1cc(=O)[nH]c2ccccc12,"inconclusive: 112 µM [inhibitor, single point]",
COc1cc(CNc2ccccc2SC)ccc1O,"inconclusive: 25.1 µM [inhibitor, single point]",
COc1ccnc(Oc2ccc(F)cc2)c1C(=O)N/C=N/OCc1c(Cl)cccc1Cl,"inconclusive: 50.1 µM [inhibitor, partial curve]",
N#CC(NC(=O)OCc1ccccc1)c1ccccc1 (stereo not drawn),"inconclusive: 44.7 µM [inhibitor, partial curve, poor fit]",
O=[N+]([O-])c1cc(Cl)c(O)c2ncccc12,,inactive: 124%
COc1ccc(C(=O)N2CC3(CC(c4cccc([N+](=O)[O-])c4)=NO3)C[C@H]2C(=O)NCC(N)=O)cc1 (stereo partly drawn),"inconclusive: 39.8 µM [inhibitor, single point]",
O=C(/C=C/c1ccc(Br)o1)Nc1nccs1,active: 20 µM,
O=C1OC(c2ccccc2)/C(=C(/O)c2ccc(Cl)cc2)C1=O (stereo not drawn),"inconclusive: 11.2 µM [inhibitor, full curve, poor fit]",
CCCN(C(=O)c1c(C)oc2ncn(CC(C)C)c(=O)c12)c1ccccc1C,,inactive: 30%
COc1ccc(-c2nn(C)c3sc(C(=O)Nc4cc(OC)c(OC)c(OC)c4)cc23)cc1OC,active: 22.4 µM,
O=C(O)c1ccccc1N/N=C/c1cc(Br)cc(Br)c1O,"inconclusive: 28.2 µM [inhibitor, full curve]",
CC(C)n1c(SCC(=O)c2ccc(F)cc2)nc2c(sc3ccccc32)c1=O,,inactive: 6.19%
c1ccc2[nH]c(CN3CCOCC3)nc2c1,"inconclusive: 100 µM [inhibitor, single point]",
COc1ccc(C)cc1NC(=O)C1CCN(S(=O)(=O)Cc2ccccc2)CC1,,inactive: 34.3%
O=C(C[n+]1cccc(Br)c1)c1ccc(Br)cc1,"inconclusive: 89.1 µM [inhibitor, single point]",
CCCOc1ccc(C(=O)Nc2cc(-c3nc4ccccc4[nH]3)ccc2C)cc1,,inactive: -5.37%
COCCCN1CN=C(Nc2nc3ccccc3o2)NC1,,inactive: 50.9%
Cc1ccc(C(=O)c2oc3ccccc3c2NC(=O)COc2ccccc2Cl)cc1,,inactive: 15.5%
CC#CCN1C(=O)N[C@@H](c2ccccc2)C(C(=O)OC)=C1C,,inactive: 32.9%
COc1cc2c(cc1OC)CN(C(=O)c1ccco1)CC2,"inconclusive: 11.2 µM [inhibitor, partial curve, poor fit]",
CCOC(=O)C1=C(C)NC(=O)NC1C(C)C (stereo not drawn),"inconclusive: 56.2 µM [inhibitor, partial curve, poor fit]",
Nc1cc2c3c(cccc3c1)C(=O)N(CCN1CCCC1)C2=O,active: 35.5 µM,
COc1ccc(C(C)C)cc1S(=O)(=O)N1CCC(C(=O)NCc2cccnc2)CC1,,inactive: 104%

# In a second layout: 2 of the compounds above.
SMILES	Potency	activity, negative = inhibition
COc1ccc(-c2nn(C)c3sc(C(=O)Nc4cc(OC)c(OC)c(OC)c4)cc23)cc1OC	active: 22.4 µM	
O=C(O)c1ccccc1N/N=C/c1cc(Br)cc(Br)c1O	inconclusive: 28.2 µM [inhibitor, full curve]	

# Following part.

SMILES,Potency,"activity, negative = inhibition"
c1cncc(-c2nc(NCC3COc4ccccc4O3)c3ccccc3n2)c1 (stereo not drawn),"inconclusive: 14.1 µM [inhibitor, full curve, poor fit]",
CCOC(=O)CNC(=O)CSc1nnc(-c2ccccc2OC)n1CC,"inconclusive: 112 µM [inhibitor, single point]",
Cc1ccc(/C=C2/NC(=O)N(Cc3ccccc3)C2=O)o1,,inactive: -7.99%
CCCCN(CC)S(=O)(=O)c1ccc(C(=O)Nc2nnc(CSC)o2)cc1,"inconclusive: 112 µM [inhibitor, single point]",
CN1CC2=Cc3ccccc3OC23Oc2ccccc2C=C3C1,"inconclusive: 12.6 µM [inhibitor, full curve, poor fit]",
c1ccc2cc3c(NCCN4CCOCC4)ccnc3cc2c1,"inconclusive: 44.7 µM [inhibitor, single point]",
O=C(COc1ccccc1/C=C1\SC(=O)NC1=O)Nc1ccccc1,"inconclusive: 39.8 µM [inhibitor, partial curve, poor fit]",
O=C(CSc1nc2c([nH]c3ccccc32)c(=O)n1-c1cccc(Cl)c1)N1CCOCC1,"inconclusive: 89.1 µM [inhibitor, single point] and inconclusive: 28.2 µM [inhibitor, single point]",
Cc1cccc(Cn2c(C)c(CNC3CCCCCC3)c(C(=O)O)c2C)c1,,inactive: -14.1%
NC(=O)C1CN(S(=O)(=O)c2ccc(Cl)cc2F)c2ccccc2O1 (stereo not drawn),,inactive: 10.4%
O=C1CC(c2ccco2)CC2=C1C(c1cccnc1)n1nc(C(F)(F)F)nc1N2 (stereo not drawn),"inconclusive: 31.6 µM [inhibitor, full curve, poor fit]",
Cc1oc(-c2cccc(Cl)c2)nc1CN1CCCC(C(=O)N2CCN(c3ccc(F)cc3)CC2)C1 (stereo not drawn),,inactive: -9.37%
Cc1cc(=O)oc2cc(OC(C)C(=O)Nc3ccc(C(N)=O)cc3)ccc12 (stereo not drawn),"inconclusive: 0.631 µM [inhibitor, full curve, poor fit]",
CCN(CC)CCN(C(=O)c1ccc2c(c1)OCCO2)c1nc2c(Cl)cccc2s1,,inactive: -2.5%
O=C(NC1CC(=O)N(c2ccc3c(c2)OCCO3)C1)N1CCCCC1 (stereo not drawn),,inactive: 57.8%
CCc1ccccc1N(C)S(=O)(=O)c1ccc2[nH]cc(C(=O)N3CCc4ccccc43)c(=O)c2c1,"inconclusive: 112 µM [inhibitor, single point]",
CCCc1nn2c(=O)cc(COc3ccc(NC(=O)c4ccco4)cc3)nc2s1,,inactive: 36.3%
O=C(Nc1ccc2oc(-c3ccc4ccccc4c3)nc2c1)c1ccc2c(c1)OCCO2,"inconclusive: 31.6 µM [inhibitor, partial curve, poor fit]",
Cc1ccc(C(=O)O/N=C(\N)c2ccccn2)c(C)c1,,inactive: 119%
COc1cccc(-n2c(SCc3c(C)noc3C)nnc2-c2cccc(S(=O)(=O)N(C)C)c2)c1,"inconclusive: 22.4 µM [inhibitor, single point]",
O=C(CN1C(=O)NC2(CCCC2)C1=O)N1CCN(S(=O)(=O)c2cc(Cl)ccc2Cl)CC1,"inconclusive: 89.1 µM [inhibitor, single point]",
COc1sc(SC)cc1/C=N/NC(=O)c1ccncc1,"inconclusive: 89.1 µM [inhibitor, single point]",

# Reference: PubChem BioAssay AID588590 (National Center for Advancing Translational Sciences (NCATS), 2011)
